At least one structure is not confirmed: it was looked up by name or label, or the drawing left a doubt.
Columns and labels:
[1] = system: cancer cells MCF-7 (mammary gland adenocarcinoma); assay: Example 2: titre of Cytochrome C in test tubes with cancer cells MCF-7; format: cell-based; conditions: MCF-7, dilution 10^−5 mmol/l, 24 hours at 37° C.; titre before 1:14000
[2] = system: adenocarcinoma of the prostate gland; assay: Example 9: patient K., adenocarcinoma of the prostate gland, ultrasound, PSA and blood counts; format: in vivo, human; conditions: 300 g twice daily during meals, 10 days, before 35×48 mm^2

In the case of `Cc1cc(Cl)ccc1OCC(=O)O` [4-chlorine-2-methyl phenoxyacetic acid], the “titre of Cytochrome C” value [1] is reported as 1:2000 and the “tumour size (ultrasound)” value [2] is reported as 12×24 mm^2.
